# Taken from: PubChem BioAssay AID1159579 (Peter MacCallum Cancer Centre, 2015)
# Test: 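Retest candidate lymphatic endothelial migration regulators using several independent siRNAs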 (follow-up of hits)
# Cell system: human dermal lymphatic endothelial cells
# Reagent: single siRNA against human genes, 25 nM
# Detection: 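Scratch wound imaging measuring area filled by moving cells plus nuclei number, averaged over two wells and scaled to mock-transfected controls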
# Direction: migration relative to mock: higher = more migration into the scratch; mean nuclei count: higher = more cells remaining
# Hit rule: 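Called active when the migration ratio is 0.6 or lower (impaired) or 1.3 or higher (accelerated), but inactive whenever the mean nuclei count falls under 3300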
# Calls: active = migration changed (impaired or accelerated); inactive = no migration change, or too few cells
# In all, the deposit lists about 2,000 reagents; below is a part drawn at random. Of all reagents, 549 (27%) are marked active. 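Some migration ratios are negative; siRNAs with too few cells are inactive whatever their migration ratio.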 The numbers tell different reagents against one gene apart. Not all columns of the deposit are shown. The record does not give: the time to read-out.
gene knocked down,reagent,migration relative to mock,mean nuclei count,activity call
PLB1 (phospholipase B1),1,0.69,4754,inactive
PLB1 (phospholipase B1),2,0.52,5389,active
PLB1 (phospholipase B1),3,0.44,4559,active
PLB1 (phospholipase B1),4,1.06,5416,inactive
COPB2 (coat protein complex I subunit beta 2),1,0.06,5324,active
COPB2 (coat protein complex I subunit beta 2),2,0.32,4819,active
COPB2 (coat protein complex I subunit beta 2),3,0.54,4736,active
COPB2 (coat protein complex I subunit beta 2),4,0.27,5260,active
GPI (glucose-6-phosphate isomerase),1,0.7,6562,inactive
GPI (glucose-6-phosphate isomerase),2,-0.75,4026,active
GPI (glucose-6-phosphate isomerase),3,0.64,6768,inactive
GPI (glucose-6-phosphate isomerase),4,0.73,6627,inactive
PDCL3 (phosducin like 3),1,0.78,4028,inactive
PDCL3 (phosducin like 3),2,0.99,6140,inactive
PDCL3 (phosducin like 3),3,0.92,4912,inactive
PDCL3 (phosducin like 3),4,0.92,5534,inactive
CLIP2 (CAP-Gly domain containing linker protein 2),1,0.8,5872,inactive
CLIP2 (CAP-Gly domain containing linker protein 2),2,0.9,6264,inactive
CLIP2 (CAP-Gly domain containing linker protein 2),3,1.11,6265,inactive
CLIP2 (CAP-Gly domain containing linker protein 2),4,-0.12,4270,active
IRF8 (interferon regulatory factor 8),1,1.02,5696,inactive
IRF8 (interferon regulatory factor 8),2,0.09,4692,active
IRF8 (interferon regulatory factor 8),3,0.74,6126,inactive
IRF8 (interferon regulatory factor 8),4,0.72,6444,inactive
SLC60A2,1,0.52,6422,active
SLC60A2,2,0.94,7064,inactive
SLC60A2,3,1.04,6460,inactive
SLC60A2,4,0.44,2962,inactive
GJB6 (gap junction protein beta 6),1,0.8,6190,inactive
GJB6 (gap junction protein beta 6),2,0.26,5564,active
GJB6 (gap junction protein beta 6),3,0.97,6310,inactive
GJB6 (gap junction protein beta 6),4,0.72,4870,inactive
ARL6IP1 (ARL6 interacting reticulophagy regulator 1),1,1.06,5389,inactive
ARL6IP1 (ARL6 interacting reticulophagy regulator 1),2,-0.27,3831,active
ARL6IP1 (ARL6 interacting reticulophagy regulator 1),3,1.02,6262,inactive
ARL6IP1 (ARL6 interacting reticulophagy regulator 1),4,0.74,4269,inactive
KLK11 (kallikrein related peptidase 11),1,0.66,4284,inactive
KLK11 (kallikrein related peptidase 11),2,0.01,5876,active
KLK11 (kallikrein related peptidase 11),3,0.83,6600,inactive
KLK11 (kallikrein related peptidase 11),4,0.72,6311,inactive
DEFB124 (defensin beta 124),1,1.08,6004,inactive
DEFB124 (defensin beta 124),2,-0.32,2744,inactive
DEFB124 (defensin beta 124),3,0.99,5932,inactive
DEFB124 (defensin beta 124),4,0.72,5302,inactive
CMC1 (C-X9-C motif containing 1),1,0.83,5149,inactive
CMC1 (C-X9-C motif containing 1),2,0.94,4342,inactive
CMC1 (C-X9-C motif containing 1),3,0.9,4924,inactive
CMC1 (C-X9-C motif containing 1),4,0.22,3761,active
TMIGD2 (transmembrane and immunoglobulin domain containing 2),1,0.27,5171,active
TMIGD2 (transmembrane and immunoglobulin domain containing 2),2,-0.32,3348,active
TMIGD2 (transmembrane and immunoglobulin domain containing 2),3,0.89,5837,inactive
TMIGD2 (transmembrane and immunoglobulin domain containing 2),4,0.84,6205,inactive
KRTAP12-2 (keratin associated protein 12-2),1,0.76,6191,inactive
KRTAP12-2 (keratin associated protein 12-2),2,1,5516,inactive
KRTAP12-2 (keratin associated protein 12-2),3,0.58,3539,active
KRTAP12-2 (keratin associated protein 12-2),4,0.9,5436,inactive
FLCN (folliculin),1,0.48,5046,active
FLCN (folliculin),2,0.56,3970,active
FLCN (folliculin),3,1.07,5158,inactive
FLCN (folliculin),4,0.42,4020,active
APPL1,1,0.96,6511,inactive
APPL1,2,0.67,5617,inactive
APPL1,3,0.74,5447,inactive
APPL1,4,0.65,4664,inactive
CCND2 (cyclin D2),1,0.94,5046,inactive
CCND2 (cyclin D2),2,1.19,5614,inactive
CCND2 (cyclin D2),3,0.8,6613,inactive
CCND2 (cyclin D2),4,0.64,5463,inactive
CMC2 (C-X9-C motif containing 2),1,1,5086,inactive
CMC2 (C-X9-C motif containing 2),2,0.84,5840,inactive
CMC2 (C-X9-C motif containing 2),3,0.57,3244,inactive
CMC2 (C-X9-C motif containing 2),4,0.84,5545,inactive
RTL8B (retrotransposon Gag like 8B),1,1.15,6624,inactive
RTL8B (retrotransposon Gag like 8B),2,0.82,5642,inactive
RTL8B (retrotransposon Gag like 8B),3,1.04,5372,inactive
RTL8B (retrotransposon Gag like 8B),4,1.08,5832,inactive
TNFRSF8 (TNF receptor superfamily member 8),1,0.44,5570,active
TNFRSF8 (TNF receptor superfamily member 8),2,0.94,7046,inactive
TNFRSF8 (TNF receptor superfamily member 8),3,0.57,4825,active
TNFRSF8 (TNF receptor superfamily member 8),4,0.39,3709,active
HIC1 (HIC ZBTB transcriptional repressor 1),1,0.69,7177,inactive
HIC1 (HIC ZBTB transcriptional repressor 1),2,0.62,5851,inactive
HIC1 (HIC ZBTB transcriptional repressor 1),3,0.3,5142,active
HIC1 (HIC ZBTB transcriptional repressor 1),4,1.04,6121,inactive
THSD4 (thrombospondin type 1 domain containing 4),1,0.82,5550,inactive
THSD4 (thrombospondin type 1 domain containing 4),2,-0.15,2892,inactive
THSD4 (thrombospondin type 1 domain containing 4),3,0.97,5786,inactive
THSD4 (thrombospondin type 1 domain containing 4),4,1.02,6161,inactive
